Results of single-concentration screens

A: 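Growth of Mycobacterium tuberculosis over 3 days (7H9 medium with glucose and tyloxapol); the read-out is not stated. Concentration: 50 µM. Direction is inferred from retests: higher values go with more growth inhibition. About 69,000 compounds were tested under these conditions; 1.1% (about 760) showed 50% or more at least once.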
B: 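Whole-cell growth test on Mycobacterium tuberculosis, read after 4 days in a medium based on cholesterol and the lipid DPPC; the read-out is not stated. Concentration: 50 µM. Higher reads as more growth inhibition (inferred: compounds with an IC50 in retests scored well above the rest). About 69,000 compounds were tested under these conditions; 0.54% (about 370) showed 50% or more at least once.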

Results are given as percent effect.
How 0% and 100% were set is not recorded. Most values in the screen are low, and negative values occur.
This is an unselected part of the compounds tested.
Two or more numbers in one place are separate tests of the same structure; such repeats can differ widely.

* CCn1c(C)nc2cc(NC(=O)CC3CCN(S(C)(=O)=O)CC3)ccc21 : A: -34.91%; B: -13% & 0.2821%
* Cc1nn(C)c(C)c1CC(=O)N1CCCC(n2ccnc2)C1 (stereo not drawn) : A: 3.338%; B: -11.13%
* CCN(Cc1cc(Cl)c(O)c(OC)c1)Cc1nc(COC)no1 : A: 20.65%; B: -11.78%
* CC(C)Cc1cc(C(=O)NCC2CCN(c3ccccc3F)C2)on1 (stereo not drawn) : A: -10.84%; B: 8.493%
* CCOC(=O)C1CCCCN1Cc1c[nH]nc1-c1ccc(F)cc1F (stereo not drawn) : A: 12.62%; B: 4.888%
* CCOCCCNC(=O)c1cc(Br)c2c(c1)OCCO2 : A: -9.188%; B: 13.77%
* Cc1cc(CN(C)C(=O)C2CCS(=O)(=O)C2)no1 (stereo not drawn) : A: 16.57%; B: -15.7%
* Cc1ccccc1C1CCCN1Cc1nc2c(cnn2C)c(=O)[nH]1 (stereo not drawn) : A: 0.6813% & -51.19%; B: -7.374%
* CSc1ncc(CNC(C)c2cnn(-c3ccc(F)cc3F)c2C)cn1 (stereo not drawn) : A: 12.91% & 4.895%; B: 24.26%
* CCS(=O)(=O)N1CCn2c(COCC3CCOCC3)cnc2C1C (stereo not drawn) : A: -7.449% & -3.067%; B: 12.11%
* CCN1CCOCC12CCN(c1cnccn1)CC2.O=C(O)C(F)(F)F : A: 11.05%; B: -7.491%
* CCCc1n[nH]c(C2CN(CCCS(C)(=O)=O)CCO2)n1 (stereo not drawn) : A: 14.68%; B: -2.308%
* Cc1cc(C)c2c(N3CCN(C(=O)N4CCOCC4)CC3)ncnc2n1 : A: 4.326%; B: 20.44%
* O=C(O)C(F)(F)F.[H][C@]12C[C@@H](Cn3cncn3)N(C(C)=O)[C@@]1([H])CCN(CC1CC1)C2 : A: -10.43% & 2.228%; B: -20.13%
* CC(C(=O)NCC1(c2c(F)cccc2F)CCCC1)S(C)(=O)=O (stereo not drawn) : A: 28.22%; B: 9.465%
* COc1ccccc1CCNC(=O)CN1CCCC1c1noc(C)n1 (stereo not drawn) : A: 5.03%; B: -12.76%
* CCOc1ccc(C(=O)N2CCN(c3nccn3C)CC2)cc1.Cl : A: -18.98%; B: -21.25%
* CCOc1cccc(C(=O)N2CCC3(CC2)[C@H](O)C[C@@H]3OC)c1 : A: -0.5844%; B: -13.54%
* Cc1nc(-c2ccccc2F)sc1C(=O)N1CCN(C)CC1 : A: -23.52%; B: -31.22%
* CCc1cc(-c2ccnc3c2ccn3C)nc(N2CCOCC2)n1 : A: 39.34%; B: 13.25%
* CSc1sc(NC(=O)C2CCCN(C(N)=O)C2)nc1C (stereo not drawn) : A: 4.265% & -15.93%; B: -1.592%
* Cc1cc(C(=O)N2CCCC3(COCCN(CCN(C)C)C3)C2)no1.O=C(O)C(F)(F)F.O=C(O)C(F)(F)F (stereo not drawn) : A: 12.69% & -4.29%; B: -4.293%
* Cn1cccc1C(O)CNS(=O)(=O)c1ccccc1F (stereo not drawn) : A: 1.483% & -32.6%; B: -20.34%
* O=C(C1CCCCC1)N1CCC2(CC1)OCCO2 : A: 1.493%; B: -1.847%
* Fc1ccccc1-c1cccc(C2CCCN(C3CCOCC3)C2)n1 (stereo not drawn) : A: -3.329%; B: 24.02% & -0.8478%
* COCC1CN(Cc2ccoc2)Cc2nnn(C)c21.O=C(O)C(F)(F)F (stereo not drawn) : A: -36.3%; B: -22.92%
* CN(Cc1ccco1)Cc1ccccc1CNC(=O)c1ccncc1 : A: -3.8%; B: 5.798%
* COc1ccc(CN2CC(O)CN(C(=O)OCC(C)(C)C)CC2=O)cc1 (stereo not drawn) : A: 4.911%; B: -15.04%
* COCC1CN(Cc2ccc3c(c2)OCO3)Cc2ncn(C)c21.O=C(O)C(F)(F)F.O=C(O)C(F)(F)F (stereo not drawn) : A: 10.56%; B: 24.28%
* Cc1ccc(C(=O)N2CCC3(CCN3c3ncccn3)C2)cn1.O=C(O)C(F)(F)F (stereo not drawn) : A: 6.392%; B: 2.856%
* Cc1cc(Cl)ccc1-n1ncc(C(=O)N(C)CCc2ccccn2)c1N : A: -66.18%; B: -50.75%
* CN(C)c1nc(CNC(=O)NC2COc3ccccc32)cs1 (stereo not drawn) : A: 27.94%; B: 5.057%
* COCC(=O)NCC1Cn2nnc(-c3ccncc3)c2CO1.O=C(O)C(F)(F)F (stereo not drawn) : A: -25.95% & -4.528%; B: -11.98%
* CCC(NC(=O)CC1CCN(C(C)C)CC1)c1cn2cccnc2n1 (stereo not drawn) : A: 2.695%; B: 9.721% & -8.387%
* N#Cc1cc(F)c(N2CCC(NS(=O)(=O)c3cccs3)CC2)c(F)c1 : A: -7.161%; B: 15.29%
* CN1CCCC1CNC(=O)CCCOc1cccc(F)c1 (stereo not drawn) : A: -16.52%; B: -10.7%
* Cc1ccc(C(=O)N2CCC3(CCN3Cc3ccc(F)cc3)C2)cn1.O=C(O)C(F)(F)F (stereo not drawn) : A: 21.27%; B: 5.991%
* Cc1ccc(CNc2cc3c(cc2Cl)NC(=O)CO3)cc1C : A: 17.71%; B: 1.17%
* Cc1n[nH]c(C)c1CNC(=O)c1cn(CCC2CCCCN2)nn1 (stereo not drawn) : A: -5.898%; B: 9.126% & -16.28%
* Cc1nn(C)c(C)c1C1CCCN1Cc1nc(C2CC2)no1 (stereo not drawn) : A: -16.2%; B: -14.59%
* C[S+]([O-])CCNC(=O)N1CCSC2(CCCCC2)C1 (stereo not drawn) : A: 5.513%; B: -3.952% & -8.665%
* COC(=O)CCC(=O)N1CCc2[nH]nc(-c3ccc4c(c3)OCO4)c2C1 : A: 19.95%; B: 13.55%
* CC(C)c1nc(C2CCCN2CCCc2nc3ccccc3o2)no1 (stereo not drawn) : A: 37.03%; B: 19.88%
* COCCNc1ccc(CC2CCCN(C3CCCC3)C2)nn1 (stereo not drawn) : A: -26.32%; B: -5.913% & -8.453%
* Cc1cc(-c2cnc(N3CCC(C(N)=O)CC3)nc2C(C)C)on1 : A: -3.984%; B: 7.232% & 1.267%
* Cc1[nH]c2c(C)ccc(C)c2c1CC(=O)NCC(O)c1cccnc1 (stereo not drawn) : A: 24.87%; B: 0.3175%
* CC(C)C(C)N(C(=O)c1cc2c([nH]c1=O)CCCC2=O)C1CC1 (stereo not drawn) : A: -4.226%; B: 2.792%
* CCN(CC)CCCNC(=O)C(C)n1cc(Br)cn1 (stereo not drawn) : A: 13.79%; B: 12.91%

The last 4 entries again:

- Cc1cc(-c2cnc(N3CCC(C(N)=O)CC3)nc2C(C)C)on1 : A: -3.984%; B: 7.232% & 1.267%
- Cc1[nH]c2c(C)ccc(C)c2c1CC(=O)NCC(O)c1cccnc1 (stereo not drawn) : A: 24.87%; B: 0.3175%
- CC(C)C(C)N(C(=O)c1cc2c([nH]c1=O)CCCC2=O)C1CC1 (stereo not drawn) : A: -4.226%; B: 2.792%
- CCN(CC)CCCNC(=O)C(C)n1cc(Br)cn1 (stereo not drawn) : A: 13.79%; B: 12.91%

Data taken from ChEMBL document CHEMBL3988442, “University of Dundee, Small-Polar-MMV Screening Library” (2021).